Test results as given in article PMC8215223.
No constants are given. Whether binding was seen depends on the method and setting. In cells and extracts the contact can be indirect. Some results given as binding are weak or reduced against the parent protein; the word gives no strength. For some of these results: Tags and fused reporters may be left off the sequences shown.

Tests used:
[1] = target: T1, HOOK3 (endogenous) (human (endogenous in HeLa)) (UniProt Q86VS8); assay: proximity ligation; Duolink PLA kit on fixed, permeabilized HeLa cells; non-treated or 100 ng/mL nocodazole for 16 hr; pHisH3 staining marks mitotic cells
T1 sequence: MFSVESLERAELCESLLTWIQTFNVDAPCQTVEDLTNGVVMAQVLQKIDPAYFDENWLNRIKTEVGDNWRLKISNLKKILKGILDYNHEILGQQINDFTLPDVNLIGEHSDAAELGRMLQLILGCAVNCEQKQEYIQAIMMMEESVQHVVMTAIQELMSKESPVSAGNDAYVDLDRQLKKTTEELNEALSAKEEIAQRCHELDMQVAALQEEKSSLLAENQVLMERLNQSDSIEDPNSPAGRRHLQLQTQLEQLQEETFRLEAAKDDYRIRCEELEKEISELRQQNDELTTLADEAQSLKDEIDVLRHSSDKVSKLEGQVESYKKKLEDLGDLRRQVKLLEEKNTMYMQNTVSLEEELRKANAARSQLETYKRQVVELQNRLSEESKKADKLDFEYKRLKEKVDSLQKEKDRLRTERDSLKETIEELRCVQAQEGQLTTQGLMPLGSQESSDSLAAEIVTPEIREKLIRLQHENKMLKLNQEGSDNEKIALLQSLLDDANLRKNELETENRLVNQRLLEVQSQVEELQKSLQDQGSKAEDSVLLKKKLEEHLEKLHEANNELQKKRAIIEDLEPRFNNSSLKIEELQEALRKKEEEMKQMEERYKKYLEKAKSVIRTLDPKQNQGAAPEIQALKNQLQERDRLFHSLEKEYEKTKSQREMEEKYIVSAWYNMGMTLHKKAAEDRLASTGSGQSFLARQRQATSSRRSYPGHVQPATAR

GFP-HOOK3 S707A (human) = target: T2, GFP-HOOK3 S707A (human) (UniProt Q86VS8); assay: co-IP; HeLa extracts in Buffer H (sonicated, 15,000 x g); 2 hr at 4°C with A/G-agarose beads pre-linked with antibody; washed with coIP-washing buffer; Western blot; cells left non-treated, treated with 100 ng/mL nocodazole for 16 hr, or released from a thymidine block
T2 sequence: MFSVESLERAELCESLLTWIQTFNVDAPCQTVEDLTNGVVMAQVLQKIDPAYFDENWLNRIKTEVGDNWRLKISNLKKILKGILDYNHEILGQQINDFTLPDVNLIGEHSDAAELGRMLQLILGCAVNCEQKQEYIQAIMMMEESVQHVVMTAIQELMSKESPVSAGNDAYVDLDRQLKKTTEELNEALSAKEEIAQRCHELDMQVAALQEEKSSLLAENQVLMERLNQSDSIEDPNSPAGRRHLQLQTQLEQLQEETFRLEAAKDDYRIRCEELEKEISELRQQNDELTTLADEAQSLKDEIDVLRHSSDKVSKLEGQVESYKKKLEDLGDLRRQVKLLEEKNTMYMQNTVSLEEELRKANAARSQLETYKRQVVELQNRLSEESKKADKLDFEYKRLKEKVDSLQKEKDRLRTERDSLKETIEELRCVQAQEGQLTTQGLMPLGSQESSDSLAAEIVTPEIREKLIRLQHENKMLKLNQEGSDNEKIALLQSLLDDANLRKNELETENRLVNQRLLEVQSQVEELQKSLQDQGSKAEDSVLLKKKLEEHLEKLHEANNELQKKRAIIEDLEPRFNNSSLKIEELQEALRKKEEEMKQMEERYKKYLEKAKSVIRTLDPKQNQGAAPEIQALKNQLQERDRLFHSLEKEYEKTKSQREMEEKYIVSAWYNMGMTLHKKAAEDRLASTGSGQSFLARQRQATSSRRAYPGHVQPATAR

GFP-HOOK3 S707E (human) = target: T3, GFP-HOOK3 S707E (human) (UniProt Q86VS8); assay: as above
T3 sequence: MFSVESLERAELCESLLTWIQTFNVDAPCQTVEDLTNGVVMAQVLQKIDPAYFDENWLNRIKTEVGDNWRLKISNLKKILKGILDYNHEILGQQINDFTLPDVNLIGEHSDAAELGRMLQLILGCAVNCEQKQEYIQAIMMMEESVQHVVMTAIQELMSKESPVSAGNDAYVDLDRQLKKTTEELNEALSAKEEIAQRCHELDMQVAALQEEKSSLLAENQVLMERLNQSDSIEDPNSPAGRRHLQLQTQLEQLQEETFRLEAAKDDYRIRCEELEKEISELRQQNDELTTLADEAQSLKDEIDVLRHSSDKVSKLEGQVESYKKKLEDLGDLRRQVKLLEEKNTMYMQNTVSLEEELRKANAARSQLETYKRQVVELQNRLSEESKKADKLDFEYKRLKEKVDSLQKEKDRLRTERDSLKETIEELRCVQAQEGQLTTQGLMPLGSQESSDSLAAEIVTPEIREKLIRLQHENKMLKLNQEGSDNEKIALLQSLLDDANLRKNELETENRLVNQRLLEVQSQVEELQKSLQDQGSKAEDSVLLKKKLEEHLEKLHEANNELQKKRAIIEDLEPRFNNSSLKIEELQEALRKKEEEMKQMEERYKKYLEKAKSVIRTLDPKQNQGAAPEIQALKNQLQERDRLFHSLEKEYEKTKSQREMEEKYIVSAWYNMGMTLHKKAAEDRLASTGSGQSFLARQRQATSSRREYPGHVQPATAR

GFP-WT-HOOK3 (human) = target: T4, GFP-WT-HOOK3 (human) (UniProt Q86VS8); assay: as above
T4 sequence: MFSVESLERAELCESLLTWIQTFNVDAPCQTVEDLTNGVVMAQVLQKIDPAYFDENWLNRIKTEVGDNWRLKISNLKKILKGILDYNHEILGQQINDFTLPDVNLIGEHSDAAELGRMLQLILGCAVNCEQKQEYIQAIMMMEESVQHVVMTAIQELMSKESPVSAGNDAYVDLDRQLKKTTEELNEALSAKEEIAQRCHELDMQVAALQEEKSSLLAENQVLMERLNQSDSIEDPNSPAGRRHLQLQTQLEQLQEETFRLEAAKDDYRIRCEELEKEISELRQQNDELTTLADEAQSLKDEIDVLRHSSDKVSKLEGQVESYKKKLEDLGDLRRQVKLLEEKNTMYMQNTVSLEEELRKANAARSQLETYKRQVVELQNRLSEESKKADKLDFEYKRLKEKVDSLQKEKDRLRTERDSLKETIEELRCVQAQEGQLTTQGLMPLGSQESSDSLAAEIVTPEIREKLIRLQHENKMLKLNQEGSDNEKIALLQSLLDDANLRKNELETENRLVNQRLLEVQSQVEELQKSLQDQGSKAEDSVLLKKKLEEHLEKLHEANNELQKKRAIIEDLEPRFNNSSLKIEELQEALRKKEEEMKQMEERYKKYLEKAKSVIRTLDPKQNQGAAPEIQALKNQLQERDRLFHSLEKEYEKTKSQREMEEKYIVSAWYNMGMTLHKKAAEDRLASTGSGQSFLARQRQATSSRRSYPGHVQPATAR

binding [1]: binds
binding (GFP-HOOK3 S707A (human)): binds
binding (GFP-HOOK3 S707E (human)): binds
binding (GFP-WT-HOOK3 (human)): binds
B1: AuroraA (endogenous) (enzyme, UniProt O14965 1-403)
chain: MDRSKENCISGPVKATAPVGGPKRVLVTQQFPCQNPLPVNSGQAQRVLCPSNSSQRIPLQAQKLVSSHKPVQNQKQKQLQATSVPHPVSRPLNNTQKSKQPLPSAPENNPEEELASKQKNEESKKRQWALEDFEIGRPLGKGKFGNVYLAREKQSKFILALKVLFKAQLEKAGVEHQLRREVEIQSHLRHPNILRLYGYFHDATRVYLILEYAPLGTVYRELQKLSKFDEQRTATYITELANALSYCHSKRVIHRDIKPENLLLGSAGELKIADFGWSVHAPSSRRTTLCGTLDYLPPEMIEGRMHDEKVDLWSLGVLCYEFLVGKPPFEANTYQETYKRISRVEFTFPDFVTEGARDLISRLLKHNPSQRPMLREVLEHPWITANSSKPSNCQNKESASKQS
